# Laboratory results as given in patent US6872537B1, “Assays for the detection of microtubule depolymerization inhibitors” (Regents of the University of California, priority 1998, dated 2005).
# Some of these results come from one statement about several compounds together.
# Tested on: Taxol-stabilized, rhodamine-labeled microtubules
# Assay: Microscope-based microtubule severing assay
# Assay type: biochemical
# Conditions: 0.1 μM protein, 1 mM ATP
# Method: Microscope-based severing assays were performed using previously published procedures (McNally and Vale (1993) Cell, 75: 419-429), except that microtubules were immobilized by first perfusing flow cells with a bacterially expressed kinesin mutant that binds strongly to microtubules but is unable to hydrolyze ATP (K560, G234A mutant; R. Vale and E. Taylor, unpublished results). Assays were performed in 20 mM Hepes (pH 7.5), 2 mM MgCl2, 1 mM ATP with an oxygen scavenger system consisting of glucose oxidase (220 μg/ml), catalase (36 μg/ml), glucose (22.5 mM), and 2-mercaptoethanol (71.5 mM). Images were captured using a cooled, slow-scan CCD (Photometerics) and processed using Adobe Photoshop.
molecule,measurement,value
"p60: baculovirus-expressed His-tagged S. purpuratus katanin p60 subunit (SEQ ID NO:1), AAA ATPase (protein, listed as Strongylocentrotus purpuratus, His tag; katanin p60 subunit) MSVDEICENTKMGREYALLGNYETSLVYYQGVLQQIQKLLTSVHEPQRKHQWQTIRQELSQEYEHVKNITKTLNGFKSEPAAPEPAPNHGRAAPFSHHQHAAKPAAAEPARDPDVWPPPTPVDHRPSPPYQRAARKDPPRRSEPSKPANRAPGNDRGGRGPSDRRGDARSGGGGRGGARGSDKDKNRGGKSDKDKKAPSGEEGDEKKFDPAGYDKDLVENLERDIVQRNPNVHWADIAGLTEAKRLLEEAVVLPLWMPDYFKGIRRPWKGVLMVGPPGTGKTMLAKAVATECGTTFFNVSSASLTSKYHGESEKLVRLLFEMARFYAPSTIFIDEIDSICSKRGTGSEHEASRRVKSELLIQMDGVSGPSAGEESSKMVMVLAATNFPWDIDEALRRRLEKRIYIPLPEIDGREQLLRINLKEVPLADDIDLKSIAEKMDGYSGADITNVCRDASMMAMRRRIQGLRPEEIRHIPKEELNQPSTPADFLLALQKVSKSVGKEDLVKYMAWMEEFGSV",time until broken microtubules were observed,≤ 1 min
